The record followed here is the supplement of paper PMC6411743.

By UniProt entry, the sequences of proteins in these tests, tags left out. Where a name states a change or a piece, a line headed by the entry shows the natural chain unless it says otherwise.
UniProt P61006: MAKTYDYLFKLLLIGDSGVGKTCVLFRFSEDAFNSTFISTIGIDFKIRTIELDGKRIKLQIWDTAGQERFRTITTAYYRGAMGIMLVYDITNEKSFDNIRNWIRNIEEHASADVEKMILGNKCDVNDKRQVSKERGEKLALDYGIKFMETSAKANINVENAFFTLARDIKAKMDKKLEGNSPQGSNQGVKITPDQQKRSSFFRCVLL
UniProt P62318, whole entry: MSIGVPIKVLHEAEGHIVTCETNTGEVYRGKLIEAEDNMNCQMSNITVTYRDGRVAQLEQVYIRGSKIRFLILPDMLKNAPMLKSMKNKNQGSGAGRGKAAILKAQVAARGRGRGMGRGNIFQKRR
UniProt P61024, whole entry: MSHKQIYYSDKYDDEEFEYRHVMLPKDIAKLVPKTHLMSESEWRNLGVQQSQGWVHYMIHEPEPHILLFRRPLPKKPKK
UniProt P67936, whole entry: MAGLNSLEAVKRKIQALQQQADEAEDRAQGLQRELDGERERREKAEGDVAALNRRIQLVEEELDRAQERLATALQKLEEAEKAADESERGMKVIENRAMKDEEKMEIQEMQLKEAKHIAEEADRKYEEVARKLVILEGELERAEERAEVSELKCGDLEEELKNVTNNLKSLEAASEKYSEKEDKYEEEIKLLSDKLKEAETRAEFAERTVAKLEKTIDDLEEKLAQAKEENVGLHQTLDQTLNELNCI
UniProt P56182: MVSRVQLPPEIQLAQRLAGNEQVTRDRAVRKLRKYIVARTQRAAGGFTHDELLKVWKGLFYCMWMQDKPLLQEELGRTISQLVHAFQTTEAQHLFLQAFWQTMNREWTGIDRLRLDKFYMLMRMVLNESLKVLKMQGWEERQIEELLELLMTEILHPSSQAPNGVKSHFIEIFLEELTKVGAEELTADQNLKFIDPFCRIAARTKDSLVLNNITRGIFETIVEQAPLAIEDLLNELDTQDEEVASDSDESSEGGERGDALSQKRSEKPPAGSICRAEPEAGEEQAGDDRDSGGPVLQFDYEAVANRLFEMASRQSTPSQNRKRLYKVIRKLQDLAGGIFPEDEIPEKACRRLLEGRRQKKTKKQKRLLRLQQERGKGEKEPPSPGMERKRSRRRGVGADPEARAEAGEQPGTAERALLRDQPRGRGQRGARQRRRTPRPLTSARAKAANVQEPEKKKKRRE
UniProt P57076: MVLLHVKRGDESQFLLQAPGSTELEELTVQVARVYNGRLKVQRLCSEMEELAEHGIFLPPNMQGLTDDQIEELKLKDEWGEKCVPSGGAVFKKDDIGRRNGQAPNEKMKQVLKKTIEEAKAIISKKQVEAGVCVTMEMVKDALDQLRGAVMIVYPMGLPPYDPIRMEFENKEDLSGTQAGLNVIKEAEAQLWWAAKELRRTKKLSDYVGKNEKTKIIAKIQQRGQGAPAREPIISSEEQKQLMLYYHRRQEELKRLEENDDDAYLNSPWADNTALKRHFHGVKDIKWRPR
UniProt Q07820, whole entry: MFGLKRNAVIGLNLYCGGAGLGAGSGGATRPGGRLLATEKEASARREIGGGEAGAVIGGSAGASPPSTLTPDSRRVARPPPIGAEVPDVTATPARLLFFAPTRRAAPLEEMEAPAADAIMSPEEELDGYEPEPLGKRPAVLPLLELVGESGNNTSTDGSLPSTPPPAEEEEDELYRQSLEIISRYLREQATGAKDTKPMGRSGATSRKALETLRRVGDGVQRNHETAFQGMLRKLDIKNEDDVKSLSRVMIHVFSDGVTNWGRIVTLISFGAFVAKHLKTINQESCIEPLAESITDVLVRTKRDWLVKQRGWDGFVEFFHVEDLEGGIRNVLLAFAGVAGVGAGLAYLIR
UniProt P68402: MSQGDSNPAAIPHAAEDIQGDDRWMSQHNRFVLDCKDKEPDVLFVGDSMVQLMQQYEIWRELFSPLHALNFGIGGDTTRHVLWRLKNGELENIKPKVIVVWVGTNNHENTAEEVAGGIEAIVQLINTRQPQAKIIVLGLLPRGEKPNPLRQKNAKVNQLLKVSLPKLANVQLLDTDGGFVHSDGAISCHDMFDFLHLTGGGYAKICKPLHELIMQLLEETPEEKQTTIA
UniProt P57740: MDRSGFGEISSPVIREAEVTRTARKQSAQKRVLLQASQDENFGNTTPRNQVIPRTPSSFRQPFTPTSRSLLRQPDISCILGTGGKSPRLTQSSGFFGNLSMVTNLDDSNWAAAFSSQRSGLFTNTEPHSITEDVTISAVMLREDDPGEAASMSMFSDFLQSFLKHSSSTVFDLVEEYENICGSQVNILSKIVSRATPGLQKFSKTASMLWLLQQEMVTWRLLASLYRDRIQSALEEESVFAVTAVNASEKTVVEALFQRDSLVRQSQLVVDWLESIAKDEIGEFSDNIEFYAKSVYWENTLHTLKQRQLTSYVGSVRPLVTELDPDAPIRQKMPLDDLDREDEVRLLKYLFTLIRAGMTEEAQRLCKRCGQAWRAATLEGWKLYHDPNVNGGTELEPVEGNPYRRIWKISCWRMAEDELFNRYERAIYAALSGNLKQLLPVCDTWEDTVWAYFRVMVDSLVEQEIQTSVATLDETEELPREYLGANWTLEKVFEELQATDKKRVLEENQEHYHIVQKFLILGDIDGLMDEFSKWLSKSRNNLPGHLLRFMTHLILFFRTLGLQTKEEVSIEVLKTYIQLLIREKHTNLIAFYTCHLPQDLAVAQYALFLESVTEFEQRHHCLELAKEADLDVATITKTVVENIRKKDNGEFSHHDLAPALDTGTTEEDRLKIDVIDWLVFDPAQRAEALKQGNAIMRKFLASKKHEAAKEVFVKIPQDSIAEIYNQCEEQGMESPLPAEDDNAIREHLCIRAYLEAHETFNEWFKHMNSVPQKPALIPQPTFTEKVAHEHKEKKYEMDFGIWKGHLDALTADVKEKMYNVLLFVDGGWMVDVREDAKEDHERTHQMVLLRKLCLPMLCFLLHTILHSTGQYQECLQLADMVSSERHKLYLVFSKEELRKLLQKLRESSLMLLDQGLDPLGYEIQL
UniProt P78318: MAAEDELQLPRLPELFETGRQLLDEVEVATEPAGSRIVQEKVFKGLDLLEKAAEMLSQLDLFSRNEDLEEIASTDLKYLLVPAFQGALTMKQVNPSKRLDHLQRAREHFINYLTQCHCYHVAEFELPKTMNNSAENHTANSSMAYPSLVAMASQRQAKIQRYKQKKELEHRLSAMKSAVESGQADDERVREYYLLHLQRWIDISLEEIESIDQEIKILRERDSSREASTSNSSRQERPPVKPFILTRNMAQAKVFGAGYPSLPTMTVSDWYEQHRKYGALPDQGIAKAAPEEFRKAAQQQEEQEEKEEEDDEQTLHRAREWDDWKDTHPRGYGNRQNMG
UniProt P55771: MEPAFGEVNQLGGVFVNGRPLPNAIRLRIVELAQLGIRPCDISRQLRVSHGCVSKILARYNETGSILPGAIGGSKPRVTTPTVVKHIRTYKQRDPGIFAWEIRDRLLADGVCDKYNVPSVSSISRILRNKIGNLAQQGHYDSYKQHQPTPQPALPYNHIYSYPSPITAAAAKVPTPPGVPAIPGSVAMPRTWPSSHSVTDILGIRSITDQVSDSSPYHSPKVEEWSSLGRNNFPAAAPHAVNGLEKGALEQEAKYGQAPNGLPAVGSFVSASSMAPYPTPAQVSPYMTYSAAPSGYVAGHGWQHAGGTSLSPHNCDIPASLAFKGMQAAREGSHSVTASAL
UniProt P78347: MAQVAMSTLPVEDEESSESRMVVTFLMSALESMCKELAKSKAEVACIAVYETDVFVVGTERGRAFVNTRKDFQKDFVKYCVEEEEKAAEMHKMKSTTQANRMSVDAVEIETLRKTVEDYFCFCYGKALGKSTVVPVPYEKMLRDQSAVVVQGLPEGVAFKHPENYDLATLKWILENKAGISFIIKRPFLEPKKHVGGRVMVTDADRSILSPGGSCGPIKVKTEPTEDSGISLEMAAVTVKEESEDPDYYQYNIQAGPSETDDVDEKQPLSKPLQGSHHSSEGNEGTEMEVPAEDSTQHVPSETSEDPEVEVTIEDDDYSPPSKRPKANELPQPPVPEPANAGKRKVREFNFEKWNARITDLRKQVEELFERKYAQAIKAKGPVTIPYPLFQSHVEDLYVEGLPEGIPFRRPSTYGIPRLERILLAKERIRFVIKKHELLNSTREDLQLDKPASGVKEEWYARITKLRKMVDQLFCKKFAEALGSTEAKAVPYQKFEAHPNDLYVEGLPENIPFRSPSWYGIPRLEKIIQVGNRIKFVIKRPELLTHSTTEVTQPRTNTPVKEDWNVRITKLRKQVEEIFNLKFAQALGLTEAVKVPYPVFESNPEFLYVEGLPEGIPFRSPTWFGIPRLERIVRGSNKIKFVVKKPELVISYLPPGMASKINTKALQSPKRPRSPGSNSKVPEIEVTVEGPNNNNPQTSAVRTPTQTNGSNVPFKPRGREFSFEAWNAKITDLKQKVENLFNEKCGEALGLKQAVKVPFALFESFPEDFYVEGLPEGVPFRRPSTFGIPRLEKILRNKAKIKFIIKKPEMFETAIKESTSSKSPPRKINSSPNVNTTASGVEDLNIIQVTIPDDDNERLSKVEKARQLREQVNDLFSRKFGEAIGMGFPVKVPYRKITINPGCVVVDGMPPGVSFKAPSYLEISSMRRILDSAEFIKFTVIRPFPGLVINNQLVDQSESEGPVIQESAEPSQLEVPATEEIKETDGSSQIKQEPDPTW
UniProt P78345: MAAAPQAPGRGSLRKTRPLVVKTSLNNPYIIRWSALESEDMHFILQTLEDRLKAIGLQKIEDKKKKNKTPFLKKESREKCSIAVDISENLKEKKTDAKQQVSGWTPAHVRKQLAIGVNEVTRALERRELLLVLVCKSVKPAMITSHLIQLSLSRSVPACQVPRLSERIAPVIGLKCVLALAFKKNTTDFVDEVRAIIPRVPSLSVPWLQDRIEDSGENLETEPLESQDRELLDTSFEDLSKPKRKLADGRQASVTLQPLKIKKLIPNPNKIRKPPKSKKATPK
UniProt P62937, whole entry, looked up: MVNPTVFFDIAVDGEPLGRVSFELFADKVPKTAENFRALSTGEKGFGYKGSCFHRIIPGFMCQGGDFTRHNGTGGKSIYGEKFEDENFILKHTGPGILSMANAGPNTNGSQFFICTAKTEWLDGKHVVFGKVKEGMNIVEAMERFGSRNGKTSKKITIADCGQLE
UniProt Q00613: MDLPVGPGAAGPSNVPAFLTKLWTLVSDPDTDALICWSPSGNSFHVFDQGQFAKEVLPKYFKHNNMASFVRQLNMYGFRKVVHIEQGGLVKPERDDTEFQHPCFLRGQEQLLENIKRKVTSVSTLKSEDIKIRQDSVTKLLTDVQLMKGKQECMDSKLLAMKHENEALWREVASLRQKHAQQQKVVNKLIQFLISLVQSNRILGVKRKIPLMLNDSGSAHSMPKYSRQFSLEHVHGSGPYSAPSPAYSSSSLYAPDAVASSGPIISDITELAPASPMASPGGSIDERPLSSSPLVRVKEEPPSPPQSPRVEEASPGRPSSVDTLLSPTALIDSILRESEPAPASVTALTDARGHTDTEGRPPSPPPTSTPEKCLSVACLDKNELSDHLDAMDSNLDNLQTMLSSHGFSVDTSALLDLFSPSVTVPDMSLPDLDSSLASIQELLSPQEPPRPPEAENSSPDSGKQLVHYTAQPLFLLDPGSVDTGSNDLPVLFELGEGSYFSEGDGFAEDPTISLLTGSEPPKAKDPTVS

± gives the standard deviation of the averaged measurements. Only a part is listed here, and it is no random draw.

Compound in the assay: Nc1ncnc2c1ncn2[C@@H]1O[C@H](COP(=O)(O)OP(=O)(O)NP(=O)(O)O)[C@@H](O)[C@H]1O [adenylyl imidodiphosphate]
The assay can be described thus: NP40-soluble protein abundance relative to vehicle (solubility fold change) (ratio); higher = more soluble protein in presence of AMP-PNP. The gist of the method:
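Values are fold changes against the detergent-processed vehicle, based on vsn-normalised intensities. Jurkat crude lysate was treated at eight concentrations from 0.1 to 10 mM (10 min at room temperature, then 3 min at 37 °C), solubilised with 0.8% NP40 and benzonase, ultracentrifuged and analysed by TMT-labelled LC-MS/MS over three independent experiments.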

Turning to RAB8A (UniProt P61006), the NP40-soluble protein abundance (concentration: 1mM) was determined as 1 ± 0.029; the NP40-soluble protein abundance (concentration: 2mM) is 0.98 ± 0.04; the NP40-soluble protein abundance (concentration: 4mM) amounted to 0.977 ± 0.071; the NP40-soluble protein abundance (concentration: 6mM) amounted to 0.952 ± 0.016; the NP40-soluble protein abundance (concentration: 8mM) turned out to be 0.947 ± 0.017; the NP40-soluble protein abundance (concentration: 10mM) stood at 0.951 ± 0.05.

Take UniProt P56270-2: the NP40-soluble protein abundance runs as follows: (concentration: 1mM) 1.05 ± 0.047; (concentration: 2mM) 1.09 ± 0.068; (concentration: 4mM) 1.05 ± 0.097; (concentration: 6mM) 1.06 ± 0.048; (concentration: 8mM) 1.1 ± 0.057; (concentration: 10mM) 1.11 ± 0.08.

UniProt P62318 and related entries: the NP40-soluble protein abundance by setting is: (concentration: 1mM) 1.07 ± 0.086; (concentration: 2mM) 1.12 ± 0.12; (concentration: 4mM) 1.19 ± 0.099; (concentration: 6mM) 1.22 ± 0.017; (concentration: 8mM) 1.29 ± 0.09; (concentration: 10mM) 1.32 ± 0.056.

In the case of UniProt P61024 and related entries, the NP40-soluble protein abundance runs as follows: (concentration: 1mM) 1.01 ± 0.052; (concentration: 2mM) 0.991 ± 0.036; (concentration: 4mM) 0.967 ± 0.071; (concentration: 6mM) 0.943 ± 0.056; (concentration: 8mM) 0.962 ± 0.041; (concentration: 10mM) 0.938 ± 0.08.

On to TPM4 (UniProt P67936), for which the NP40-soluble protein abundance (concentration: 1mM) was 1.21 ± 0.19; the NP40-soluble protein abundance (concentration: 2mM) worked out at 1.42 ± 0.15; the NP40-soluble protein abundance (concentration: 4mM) came to 1.27 ± 0.3; the NP40-soluble protein abundance (concentration: 6mM) stood at 1.35 ± 0.3; the NP40-soluble protein abundance (concentration: 8mM) was 1.44 ± 0.047; the NP40-soluble protein abundance (concentration: 10mM) was 1.24 ± 0.16.

Take RRP1 (UniProt P56182): the NP40-soluble protein abundance runs as follows: (concentration: 1mM) 1.023 ± 0.0035; (concentration: 2mM) 1.07 ± 0.11; (concentration: 4mM) 1.04 ± 0.027; (concentration: 6mM) 1.03 ± 0.041; (concentration: 8mM) 1.01 ± 0.018; (concentration: 10mM) 1.05 ± 0.053.

As for UniProt P57076, the NP40-soluble protein abundance turned out to be 1 ± 0.041 (concentration: 1mM); 1.06 ± 0.084 (concentration: 2mM); 1.01 ± 0.011 (concentration: 4mM); 1.06 ± 0.053 (concentration: 6mM); 1.048 ± 0.0089 (concentration: 8mM); 1.08 ± 0.034 (concentration: 10mM).

UniProt Q07820 and related entries: the NP40-soluble protein abundance by setting is: (concentration: 1mM) 0.988 ± 0.031; (concentration: 2mM) 0.995 ± 0.047; (concentration: 4mM) 1.01 ± 0.057; (concentration: 6mM) 0.992 ± 0.039; (concentration: 8mM) 1 ± 0.026; (concentration: 10mM) 0.99 ± 0.027.

For the target PAFAH1B2 (UniProt P68402), the NP40-soluble protein abundance was 0.939 ± 0.035 (concentration: 1mM); 0.958 ± 0.051 (concentration: 2mM); 0.944 ± 0.064 (concentration: 4mM); 1.04 ± 0.14 (concentration: 6mM); 1 ± 0.17 (concentration: 8mM); 1.05 ± 0.2 (concentration: 10mM).

As to NUP107 (UniProt P57740), the NP40-soluble protein abundance by setting is: (concentration: 1mM) 0.986 ± 0.011; (concentration: 2mM) 0.962 ± 0.022; (concentration: 4mM) 0.988 ± 0.04; (concentration: 6mM) 0.955 ± 0.012; (concentration: 8mM) 0.947 ± 0.019; (concentration: 10mM) 0.975 ± 0.051.

In the case of IGBP1 (UniProt P78318), the NP40-soluble protein abundance came out at 0.988 ± 0.052 (concentration: 1mM); 1.03 ± 0.036 (concentration: 2mM); 0.962 ± 0.042 (concentration: 4mM); 0.898 ± 0.01 (concentration: 6mM); 0.916 ± 0.021 (concentration: 8mM); 0.859 ± 0.023 (concentration: 10mM).

As for UniProt P55771, the NP40-soluble protein abundance is, setting by setting: (concentration: 1mM) 0.998 ± 0.028; (concentration: 2mM) 1.01 ± 0.088; (concentration: 4mM) 0.979 ± 0.022; (concentration: 6mM) 0.998 ± 0.032; (concentration: 8mM) 1 ± 0.022; (concentration: 10mM) 1.01 ± 0.022.

For the target UniProt P78347 and related entries, the NP40-soluble protein abundance (concentration: 1mM) is 1.02 ± 0.025; the NP40-soluble protein abundance (concentration: 2mM) came to 1.03 ± 0.03; the NP40-soluble protein abundance (concentration: 4mM) came to 1.06 ± 0.029; the NP40-soluble protein abundance (concentration: 6mM) worked out at 1.13 ± 0.043; the NP40-soluble protein abundance (concentration: 8mM) amounted to 1.12 ± 0.025; the NP40-soluble protein abundance (concentration: 10mM) stood at 1.17 ± 0.036.

Take RPP38 (UniProt P78345): the NP40-soluble protein abundance (concentration: 1mM) was found to be 0.925 ± 0.042; the NP40-soluble protein abundance (concentration: 2mM) is 1 ± 0.054; the NP40-soluble protein abundance (concentration: 4mM) amounted to 1.01 ± 0.044; the NP40-soluble protein abundance (concentration: 6mM) came out at 1.01 ± 0.078; the NP40-soluble protein abundance (concentration: 8mM) was 1.01 ± 0.086; the NP40-soluble protein abundance (concentration: 10mM) came to 1.01 ± 0.031.

Regarding UniProt P62829, the NP40-soluble protein abundance (concentration: 1mM) came out at 1.01 ± 0.0053; the NP40-soluble protein abundance (concentration: 2mM) worked out at 0.9597 ± 0.0018; the NP40-soluble protein abundance (concentration: 4mM) amounted to 0.9382 ± 0.003; the NP40-soluble protein abundance (concentration: 6mM) stood at 0.927 ± 0.023; the NP40-soluble protein abundance (concentration: 8mM) came to 0.895 ± 0.016; the NP40-soluble protein abundance (concentration: 10mM) was determined as 0.974 ± 0.005.

With P62158 (UniProt P0DP23), the NP40-soluble protein abundance is, setting by setting: (concentration: 1mM) 1.08 ± 0.061; (concentration: 2mM) 1.03 ± 0.082; (concentration: 4mM) 1.08 ± 0.046; (concentration: 6mM) 1.11 ± 0.034; (concentration: 8mM) 1.14 ± 0.013; (concentration: 10mM) 1.11 ± 0.058.

Regarding UniProt P62937 and related entries, the NP40-soluble protein abundance runs as follows: (concentration: 1mM) 1.06 ± 0.18; (concentration: 2mM) 0.879 ± 0.12; (concentration: 4mM) 1.03 ± 0.18; (concentration: 6mM) 0.856 ± 0.11; (concentration: 8mM) 1.01 ± 0.17; (concentration: 10mM) 0.828 ± 0.073.

Take UniProt Q00613 and related entries: the NP40-soluble protein abundance came out at 1.03 ± 0.012 (concentration: 1mM); 1.03 ± 0.033 (concentration: 2mM); 1.02 ± 0.04 (concentration: 4mM); 0.993 ± 0.051 (concentration: 6mM); 0.989 ± 0.023 (concentration: 8mM); 0.97 ± 0.044 (concentration: 10mM).
